At least one structure is not confirmed: it was looked up by name or label, or the drawing left a doubt.
Test: drug elution from DES coating
Assay type: physicochemical
Conditions: rapamycin DES coating, single layer, FIG. 6

For `CO[C@H]1C[C@@H]2CC[C@@H](C)[C@@](O)(O2)C(=O)C(=O)N2CCCC[C@H]2C(=O)O[C@H]([C@H](C)C[C@@H]2CC[C@@H](O)[C@H](OC)C2)CC(=O)[C@H](C)/C=C(\C)[C@@H](O)[C@@H](OC)C(=O)[C@H](C)C[C@H](C)/C=C/C=C/C=C/1C` [rapamycin], the “elution vs. commercial analogs” value was “no effect on elution vs. commercial analogs”.

From US11426494B2, “Stents having biodegradable layers” (MT Acquisition Holdings LLC, priority 2007, dated 2022)
